One molecule from patent WO2019216345A1 can be followed below.

The assay addresses Myc-drebrin A. Nature of the assay: Western blot, extract of HEK293 cells expressing Myc-drebrin A, binder as primary antibody, HRP-labeled anti-human IgG antibody. For orientation: A western blot detects proteins with antibodies after separation by electrophoresis.

No constants are given. Whether binding was seen depends on the method and setting. Binding calls can cover weak binding; strength is not graded here. Where a sequence is shown, tags or fusion partners need not be part of it.

B1: Drebrin-binding peptide-human IgG Fc fusion antibody in which #1 peptide is fused with the Fc region of human IgG antibody (#1Fc antibody) (Fc fusion, not shown: a dimerising Fc or GST)
chain: QVQLVESGGGLVRAGGSLRLSCAATGRTFSAYTMGWFRQAPGKEREFVAAVTRSSTSTYYAGSVKGRFTISRDNAKNMVYLQMNNLEPEDTAVYYCHARRPSTTGHWGQGTQVTVSSEPKTPKPQSA
B1: the binding entry is “binds”.
